Experimental data reported in the supplement of paper PMC12542422.
Where a name gives a salt, the structure may show the parent alone. ± gives the standard deviation of the averaged measurements. The list shows a part of the results. These are raw signals, not scaled to a control.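 Across three biological replicates, HeLa cells were imaged for ribosome assembly using ENP1 staining (export block present or absent) or inducible tagged ribosomal protein reporters. Machine learning classified each cell's signal localization relative to DMSO controls. Hits exceeded the DMSO false-positive mean by five standard deviations and were then visually confirmed.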

What follows are compounds tested on HeLa RPS2-YFP reporter (assay: fraction of reporter-positive cells with nuclear (nucleolar or nucleolar/nucleoplasmic) RPS2-YFP (MainHitrate); higher = more cells with nucleolar/nuclear readout signal (for ENP1 -LMB: less RNAPI inhibition; for +LMB ENP1 and RP reporters: stronger nuclear/nucleolar retention, i.e. ribosome biogenesis defect)). Details: concentration: 1 µM; treatment time: 6 h.

`CC(C)c1nc(CN(C)C(=O)N[C@@H](CCN2CCOCC2)C(=O)N[C@H](CC[C@H](Cc2ccccc2)NC(=O)OCc2cncs2)Cc2ccccc2)cs1` [Cobicistat (GS-9350)] and `CCCCc1ncc(/C=C(\Cc2cccs2)C(=O)O)n1Cc1ccc(C(=O)O)cc1` [Eprosartan Mesylate] are the same in “fraction of reporter-positive cells with nuclear” value (from here on “fraction”): 0.117 ± 0.11 for the first, 0.117 ± 0.098 for the second.

`CN(C)[C@@H]1C(O)=C(C(N)=O)C(=O)[C@@]2(O)C(O)=C3C(=O)c4c(O)cccc4[C@@](C)(O)[C@H]3[C@H](O)[C@@H]12` [Oxytetracycline (Terramycin)] and `CC1(C)S[C@@H]2[C@H](NC(=O)[C@H](NC(=O)N3CCN(S(C)(=O)=O)C3=O)c3ccccc3)C(=O)N2[C@H]1C(=O)O` [Mezlocillin Sodium] are within error of each other in “fraction” value: 0.103 ± 0.059 for the first, 0.123 ± 0.11 for the second.

`COc1cc(NC(C)CCCN)c2ncccc2c1` (stereo not given) [Primaquine Diphosphate] and `Nc1ccc(S(=O)(=O)Nc2ccccn2)cc1` [Sulfapyridine (Dagenan)] are within error of each other in “fraction” value: 0.141 ± 0.11 for the first, 0.0877 ± 0.056 for the second.

`Cc1cc(C2CCCCC2)n(O)c(=O)c1` [Ciclopirox (Penlac)] and `Cc1cccc(C)c1NC(=O)C1CCCCN1C` (stereo not given) [Mepivacaine HCl] are within error of each other in “fraction” value: 0.109 ± 0.063 for the first, 0.117 ± 0.092 for the second.

`C[N+](C)(C)CCOC(N)=O` [Carbachol] and `CCCC(=O)[O-].[Na+]` [Sodium butyrate] are within error of each other in “fraction” value: 0.203 ± 0.23 for the first, 0.1 ± 0.038 for the second.

`N[C@H](Cc1ccccc1)C(=O)O` [D-Phenylalanine] and `O=C(O)Cc1ccccc1Nc1c(Cl)cccc1Cl` [Diclofenac Potassium] are within error of each other in “fraction” value: 0.133 ± 0.084 for the first, 0.111 ± 0.099 for the second.

`CC1(C)O[C@@H]2C[C@H]3[C@@H]4C[C@H](F)C5=CC(=O)C=C[C@]5(C)[C@@]4(F)[C@@H](O)C[C@]3(C)[C@]2(C(=O)CO)O1` [Fluocinolone acetonide (Flucort-N)] and `C[C@@H]1C[C@H]2[C@@H]3CCC4=CC(=O)C=C[C@]4(C)[C@@]3(F)[C@@H](O)C[C@]2(C)[C@@]1(O)C(=O)CO` [Dexamethasone] are within error of each other in “fraction” value: 0.078 ± 0.046 for the first, 0.126 ± 0.098 for the second.

`COc1cc(C(=O)NC2CCCNC2)cc(OC)c1OC` (stereo not given) [Troxipide] and `COc1ccccc1OCC(O)CN1CCN(CC(=O)Nc2c(C)cccc2C)CC1` (stereo not given) [Ranolazine (Ranexa)] are within error of each other in “fraction” value: 0.145 ± 0.1 for the first, 0.101 ± 0.094 for the second.

`O=C(O)c1cn(-c2ccc(F)cc2)c2cc(N3CCNCC3)c(F)cc2c1=O` [Sarafloxacin HCl] and `Clc1ccc2c(c1)C(N1CCNCC1)=Nc1ccccc1O2` [Amoxapine] are within error of each other in “fraction” value: 0.0847 ± 0.061 for the first, 0.133 ± 0.12 for the second.

`Cc1cnc(NC(=O)C2=C(O)c3ccccc3S(=O)(=O)N2C)s1` [Meloxicam (Mobic)] and `CC(=O)Oc1ccccc1C(=O)Nc1ncc([N+](=O)[O-])s1` [Nitazoxanide (Alinia, Annita)] are within error of each other in “fraction” value: 0.113 ± 0.075 for the first, 0.11 ± 0.07 for the second.

`CNCC(O)c1ccc(O)c(O)c1` (racemic) [DL-Adrenaline] and `CC(C)NCC(O)c1ccc(O)c(O)c1` (stereo not given) [Isoprenaline hydrochloride] are within error of each other in “fraction” value: 0.105 ± 0.078 for the first, 0.126 ± 0.085 for the second.

`Cc1cc2c(cc1S(N)(=O)=O)S(=O)(=O)CCC2` [Meticrane] and `Cc1cn([C@H]2C=C[C@@H](CO)O2)c(=O)[nH]c1=O` [Stavudine] are within error of each other in “fraction” value: 0.165 ± 0.15 for the first, 0.106 ± 0.062 for the second.

`CC[C@H](C)C(=O)O[C@H]1C[C@@H](C)C=C2C=C[C@H](C)[C@H](CC[C@@H]3C[C@@H](O)CC(=O)O3)[C@H]21` [Lovastatin (Mevacor)] and `CC(=O)OCC(=O)[C@@]12N=C(C)O[C@@H]1C[C@H]1[C@@H]3CCC4=CC(=O)C=C[C@]4(C)[C@H]3[C@@H](O)C[C@@]12C` [Deflazacort (Calcort)] are within error of each other in “fraction” value: 0.136 ± 0.082 for the first, 0.124 ± 0.066 for the second.

`N#CC1(c2ccc(NC(=O)c3cccnc3NCc3ccncc3)cc2)CCCC1` [Apatinib (YN968D1)] and `N=C(N)Nc1ccc(C(=O)Oc2ccc3cc(C(=N)N)ccc3c2)cc1` [Nafamostat mesylate] are within error of each other in “fraction” value: 0.116 ± 0.088 for the first, 0.095 ± 0.057 for the second.

`CCN(CC)C(=S)SSC(=S)N(CC)CC` [Disulfiram (Antabuse)] and `CCCNC(C)C(=O)Nc1c(C)csc1C(=O)OC` (stereo not given) [Articaine HCl] are within error of each other in “fraction” value: 0.189 ± 0.22 for the first, 0.123 ± 0.11 for the second.

`NC(=O)c1cccnc1` [Nicotinamide (Niacinamide)] and `O=c1c(-c2ccc(O)cc2)coc2cc(O)ccc12` [Daidzein] are within error of each other in “fraction” value: 0.131 ± 0.068 for the first, 0.104 ± 0.042 for the second.

`Clc1ccc(COC(Cn2ccnc2)c2ccc(Cl)cc2Cl)cc1` (stereo not given) [Econazole nitrate (Spectazole)] and `CCOc1cc(N)c(Cl)cc1C(=O)NCC1CN(Cc2ccc(F)cc2)CCO1` (stereo not given) [Mosapride citrate] are within error of each other in “fraction” value: 0.118 ± 0.097 for the first, 0.116 ± 0.067 for the second.

`C=C1CC[C@H](O)C/C1=C/C=C1\CCC[C@]2(C)[C@@H]([C@H](C)CCCC(C)(C)O)CC[C@@H]12` [Calcifediol] and `CC#C[C@]1(O)CC[C@H]2[C@@H]3CCC4=CC(=O)CCC4=C3[C@@H](c3ccc(N(C)C)cc3)C[C@@]21C` [Mifepristone (Mifeprex)] are within error of each other in “fraction” value: 0.117 ± 0.044 for the first, 0.0682 ± 0.049 for the second.

`S=c1[nH]cnc2nc[nH]c12` [Mercaptopurine] and `CN1CCCCC1CCN1c2ccccc2Sc2ccc([S+](C)[O-])cc21` (stereo not given) [Mesoridazine Besylate] are within error of each other in “fraction” value: 0.0806 ± 0.078 for the first, 0.177 ± 0.14 for the second.

`CCc1c2c(nc3ccc(OC(=O)N4CCC(N5CCCCC5)CC4)cc13)-c1cc3c(c(=O)n1C2)COC(=O)[C@]3(O)CC` [Irinotecan HCl Trihydrate (Campto)] and `C=CCNC(N)=S` [Allylthiourea] are within error of each other in “fraction” value: 0.11 ± 0.068 for the first, 0.131 ± 0.11 for the second.
